Data: the supplement of paper PMC9233669
Variants at the background level are over-represented here.

Legend:
[1] = tested on: biotinyl-Ile-oxazolone; test: self-aminoacylation, catalytic enhancement (BIO) (fold over background); higher = more active; k-Seq, kA / k0A0; sequences stand for … in GGGAAUGGAUCCACAUCUACGAAUUC…UUCACUGCAGACUUGACGAAGCUG
Procedure, shortened: (§1)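 The uncatalyzed rate is the low-activity peak of a bimodal Gaussian fit, and catalytic enhancement is median kA divided by it. The kA values came from pseudo-first-order fits, with 1000 bootstraps, of per-sequence fraction reacted measured by streptavidin capture, triplicate qPCR and Illumina sequencing. Mutagenized RNA pools with a 21-nt variable region (0.43 μM) were reacted with each biotinyl-aminoacyl-oxazolone at 2–1250 μM in 50 μL HEPES/NaCl/KCl/MgCl2/CaCl2 buffer with 5% acetonitrile, pH 6.9–7.0, for 90 minutes at room temperature.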

[2] = tested on: biotinyl-Leu-oxazolone; test: self-aminoacylation, catalytic enhancement (BLO) (fold over background); higher = more active; k-Seq, kA / k0A0; sequences stand for … in GGGAAUGGAUCCACAUCUACGAAUUC…UUCACUGCAGACUUGACGAAGCUG
Procedure, shortened: as §1

[3] = tested on: biotinyl-Met-oxazolone; test: self-aminoacylation, catalytic enhancement (BMO) (fold over background); higher = more active; k-Seq, kA / k0A0; sequences stand for … in GGGAAUGGAUCCACAUCUACGAAUUC…UUCACUGCAGACUUGACGAAGCUG
Procedure, shortened: as §1

[4] = tested on: biotinyl-Trp-oxazolone; test: self-aminoacylation, catalytic enhancement (BWO) (fold over background); higher = more active; k-Seq, kA / k0A0; sequences stand for … in GGGAAUGGAUCCACAUCUACGAAUUC…UUCACUGCAGACUUGACGAAGCUG
Procedure, shortened: as §1

[5] = tested on: biotinyl-Phe-oxazolone; test: self-aminoacylation, catalytic enhancement (BFO) (fold over background); higher = more active; k-Seq, kA / k0A0; sequences stand for … in GGGAAUGGAUCCACAUCUACGAAUUC…UUCACUGCAGACUUGACGAAGCUG
Procedure, shortened: as §1

[6] = tested on: biotinyl-Val-oxazolone; test: self-aminoacylation, catalytic enhancement (BVO) (fold over background); higher = more active; k-Seq, kA / k0A0; sequences stand for … in GGGAAUGGAUCCACAUCUACGAAUUC…UUCACUGCAGACUUGACGAAGCUG
Procedure, shortened: as §1

Sequence | self-aminoacylation [1] | self-aminoacylation [2] | self-aminoacylation [3] | self-aminoacylation [4] | self-aminoacylation [5] | self-aminoacylation [6]
AAAUUUGCUAAUAGCCGCAAG [Fam3.1 aminoacylation ribozyme variant] | 1.86 | 1.16 | 1.16 | 1.27 | 1.51 | 1.38
AAAUUUGGUAAUAGUCGCAAG [Fam3.1 aminoacylation ribozyme variant] | 2.2 | 1.86 | 1.88 | 2.27 | 2.12 | 1.74
AAAUUUGUUAAUAGUCGCAAG [Fam3.1 aminoacylation ribozyme variant] | 2.11 | 1.99 | 2.04 | 1.76 | 2.69 | 1.59
AAGAUUGAUAAUAGUCGCAAG [Fam3.1 aminoacylation ribozyme variant] | 1.21 | 1.1 | 1.66 | 2.33 | 1.12 | 1.1
AAGAUUGCUAAUAAUCGCAAG [Fam3.1 aminoacylation ribozyme variant] | 1.4 | 1.23 | 1.14 | 1.29 | 1.68 | 1.21
AAGAUUGCUAAUAGCCGCAAG [Fam3.1 aminoacylation ribozyme variant] | 1.94 | 1.58 | 1.3 | 2.47 | 1.71 | 1.59
AAGCUUGCUAAUAGUGGCAAG [Fam3.1 aminoacylation ribozyme variant] | 1.25 | 0.987 | 1.28 | 1.03 | 0.919 | 0.879
AAGGUUACUAAUAGUCGCAAG [Fam3.1 aminoacylation ribozyme variant] | 1.39 | 1.3 | 1.25 | 1.6 | 2.19 | 1.38
AAGGUUGCUAAUAGUUGCAAG [Fam3.1 aminoacylation ribozyme variant] | 1.2 | 1.41 | 1.48 | 1.13 | 1.19 | 1.3
AAGUAUGCUAAUAGUCCCAAG [Fam3.1 aminoacylation ribozyme variant] | 1.14 | 1.02 | 1.18 | 1.54 | 3.66 | 1.16
AAGUAUGCUAAUAGUGGCAAG [Fam3.1 aminoacylation ribozyme variant] | 0.856 | 0.796 | 0.947 | 0.924 | 0.919 | 0.758
AAGUCUGCUAAUAGUCGCAAA [Fam3.1 aminoacylation ribozyme variant] | 1.33 | 1.33 | 1.57 | 1.86 | 2.14 | 1.48
AAGUCUGCUAAUAGUCGCAAC [Fam3.1 aminoacylation ribozyme variant] | 1.03 | 1.39 | 1.04 | 0.655 | 1.39 | 1.06
AAGUCUGCUACUAGUCGCAAG [Fam3.1 aminoacylation ribozyme variant] | 0.699 | 1.15 | 0.856 | 0.731 | 0.846 | 0.84
AAGUGUGCUAAGAGUCGCAAG [Fam3.1 aminoacylation ribozyme variant] | 1.11 | 1.13 | 1.15 | 2.15 | 5.24 | 0.87
AAGUGUGUUAAUAGUCGCAAG [Fam3.1 aminoacylation ribozyme variant] | 1.49 | 1.6 | 1.48 | 1.42 | 1.86 | 1.38
AAGUUAGCUAAUAGUCGCUAG [Fam3.1 aminoacylation ribozyme variant] | 1.42 | 1.25 | 1.33 | 1.04 | 2.36 | 1.22
AAGUUAGCUACUAGUCGCAAG [Fam3.1 aminoacylation ribozyme variant] | 1.96 | 1.36 | 1.66 | 1.48 | 1.93 | 1.34
AAGUUAGCUAGUAGUCGCAAG [Fam3.1 aminoacylation ribozyme variant] | 1.64 | 1.11 | 1.53 |  | 1.96 | 1.49
AAGUUAGCUAUUAGUCGCAAG [Fam3.1 aminoacylation ribozyme variant] | 1.99 | 1.82 | 1.34 | 1.74 | 2.06 | 1.6
AAGUUCCCUAAUAGUCGCAAG [Fam3.1 aminoacylation ribozyme variant] | 1.12 | 0.965 | 0.931 | 0.613 | 0.485 | 0.992
AAGUUCGCUAAUAGACGCAAG [Fam3.1 aminoacylation ribozyme variant] | 0.737 | 0.714 | 0.557 | 0.66 | 0.983 | 0.602
AAGUUUACGAAUAGUCGCAAG [Fam3.1 aminoacylation ribozyme variant] | 1.67 | 1.55 | 1.55 | 1.77 | 2.82 | 1.26
AAGUUUACUAAUAGUCGGAAG [Fam3.1 aminoacylation ribozyme variant] | 1.26 | 0.654 | 1.05 | 1.05 | 1.59 | 1.01
AAGUUUACUAAUUGUCGCAAG [Fam3.1 aminoacylation ribozyme variant] | 1.97 | 1.74 | 1.68 | 2 | 2.6 | 1.56
AAGUUUCCCAAUAGUCGCAAG [Fam3.1 aminoacylation ribozyme variant] | 1.26 | 1.24 | 1.44 | 1.69 | 1.52 | 1.02
AAGUUUGAUAAUAGUCGCAGG [Fam3.1 aminoacylation ribozyme variant] | 1.21 | 1.27 | 1.53 | 0.976 | 1.61 | 1.11

Sequence | self-aminoacylation [1] | self-aminoacylation [2] | self-aminoacylation [3] | self-aminoacylation [4] | self-aminoacylation [5] | self-aminoacylation [6]
AAGUUUGCAAAUAGACGCAAG [Fam3.1 aminoacylation ribozyme variant] | 0.729 | 0.683 | 0.592 | 0.642 | 1.08 | 0.728
AUUAACCUGGCCAUCGAGUGA [Fam2.1 aminoacylation ribozyme variant] | 1.52 |  |  |  | 1.86 | 1.39
AUUACCCUGUUCAUCGAGUGU [Fam2.1 aminoacylation ribozyme variant] | 1.46 |  |  |  | 1.59 | 
AUUCACCUAGGUCAUUAGGUG [Fam2.2 aminoacylation ribozyme variant] | 1.39 | 1.84 | 1.75 |  | 1.52 | 1.18
AUUUCCCUGGUCAUCGAGCGA [Fam2.1 aminoacylation ribozyme variant] | 1.7 |  |  |  | 0.815 | 1.96
CCACACCUCAAGCAAUCGGUA [Fam1B.1 aminoacylation ribozyme variant] | 1.55 | 1.28 | 1.25 | 1.07 | 0.601 | 
CCACACUCCAAGCAUUCGGUC [Fam1B.1 aminoacylation ribozyme variant] | 1.96 | 1.97 | 1.76 | 1.37 | 1.41 | 
CCACACUCCGAGCAAUCGGUC [Fam1B.1 aminoacylation ribozyme variant] | 1.56 | 1.3 | 1.39 |  | 0.739 | 1.81
CCACACUUAAAGCAAUCGGGC [Fam1B.1 aminoacylation ribozyme variant] |  | 1.19 | 1.47 | 1.99 | 1.13 | 1.92
CCACACUUCAAGCAAACGGCC [Fam1B.1 aminoacylation ribozyme variant] |  |  | 1.67 |  | 1.39 | 
CCACACUUCUAGCAAUCGGCC [Fam1B.1 aminoacylation ribozyme variant] | 1.84 |  |  |  | 1.99 | 
CCACGGUUCAAGCAAUCGGUC [Fam1B.1 aminoacylation ribozyme variant] | 1.08 | 1.07 | 1.02 | 2.21 |  | 1.22
CCACUUCAAACAAUCAGUCUG [Fam1A.1 aminoacylation ribozyme variant] | 1.03 | 1.23 | 0.98 | 10.1 |  | 0.803
CCACUUCAAACAAUCGGUCUA [Fam1A.1 aminoacylation ribozyme variant] | 1.19 | 1.5 | 0.991 | 17.4 |  | 0.99
CGACUUCAAACAAUCGGUCCG [Fam1A.1 aminoacylation ribozyme variant] | 1.03 | 1.08 | 1.19 | 4.64 |  | 0.948
CUACGUCAAACAAUCGGCCUG [Fam1A.1 aminoacylation ribozyme variant] |  |  |  |  | 1.36 | 
CUACUACAAACUAUCGGUCUG [Fam1A.1 aminoacylation ribozyme variant] | 0.869 | 0.713 | 0.949 | 0.717 |  | 0.839
CUACUCCAAACAAACGGUCUG [Fam1A.1 aminoacylation ribozyme variant] | 0.816 | 0.71 | 0.531 | 0.918 |  | 0.981
CUACUGCCAACAAUCGGUCUG [Fam1A.1 aminoacylation ribozyme variant] | 0.744 | 0.64 | 0.773 | 0.531 |  | 0.744
CUACUUCAAACAAGCGGUCGG [Fam1A.1 aminoacylation ribozyme variant] | 1.44 | 1.64 | 1.42 | 1.12 |  | 1.3
CUACUUCAAACACCCGGUCUG [Fam1A.1 aminoacylation ribozyme variant] | 1.75 | 1.68 | 1.71 |  | 0.961 | 1.75
CUACUUCCAACAGUCGGUCUG [Fam1A.1 aminoacylation ribozyme variant] | 0.911 | 0.971 | 1.06 | 0.76 |  | 0.851
CUAGUUCAAACAAUCGGUAUG [Fam1A.1 aminoacylation ribozyme variant] | 0.706 | 0.844 | 0.794 | 1.66 |  | 0.786
CUAUUUCAACCAAUCGGUCUG [Fam1A.1 aminoacylation ribozyme variant] | 0.731 | 0.692 | 0.672 | 1.62 |  | 0.676
CUUCAUCAAACAAUCGGUCUG [Fam1A.1 aminoacylation ribozyme variant] | 0.889 | 0.888 | 0.71 | 1.68 |  | 0.848
GUACUUCGAACAAUCGGUCUG [Fam1A.1 aminoacylation ribozyme variant] | 1.45 | 1.48 | 1.34 | 1.66 |  | 1.44
